# Some of the results follow.
# Chains of the proteins cited; added tags and fusions are not shown. Lines headed by an entry give the natural chain unless they say otherwise; changes in a name come on top.
# UniProt Q15125: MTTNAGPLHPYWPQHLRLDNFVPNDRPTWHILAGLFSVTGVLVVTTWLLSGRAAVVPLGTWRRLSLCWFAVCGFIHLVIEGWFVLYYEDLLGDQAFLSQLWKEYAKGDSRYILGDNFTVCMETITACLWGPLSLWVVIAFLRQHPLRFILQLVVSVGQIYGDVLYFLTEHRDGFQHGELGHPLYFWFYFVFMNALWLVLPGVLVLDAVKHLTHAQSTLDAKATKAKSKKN
# UniProt P63167, whole entry, looked up: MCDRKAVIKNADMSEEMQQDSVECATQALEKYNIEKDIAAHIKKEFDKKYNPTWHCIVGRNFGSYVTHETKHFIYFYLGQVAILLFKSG
# UniProt Q8WXX5: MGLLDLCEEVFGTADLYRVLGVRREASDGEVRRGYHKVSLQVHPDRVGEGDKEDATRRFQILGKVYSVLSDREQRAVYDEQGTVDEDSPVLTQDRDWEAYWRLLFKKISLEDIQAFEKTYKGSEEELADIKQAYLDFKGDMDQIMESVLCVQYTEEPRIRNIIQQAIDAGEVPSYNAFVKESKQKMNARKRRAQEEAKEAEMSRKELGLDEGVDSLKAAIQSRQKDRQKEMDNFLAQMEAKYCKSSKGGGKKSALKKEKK
# UniProt P42126: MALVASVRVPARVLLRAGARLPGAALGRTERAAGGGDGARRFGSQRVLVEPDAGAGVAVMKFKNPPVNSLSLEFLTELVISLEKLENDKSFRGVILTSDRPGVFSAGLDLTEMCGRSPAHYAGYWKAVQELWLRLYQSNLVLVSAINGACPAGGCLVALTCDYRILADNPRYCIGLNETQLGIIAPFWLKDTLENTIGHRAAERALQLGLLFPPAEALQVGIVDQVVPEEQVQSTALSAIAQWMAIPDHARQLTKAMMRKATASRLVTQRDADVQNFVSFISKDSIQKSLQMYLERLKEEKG
# UniProt O00429, whole entry, looked up: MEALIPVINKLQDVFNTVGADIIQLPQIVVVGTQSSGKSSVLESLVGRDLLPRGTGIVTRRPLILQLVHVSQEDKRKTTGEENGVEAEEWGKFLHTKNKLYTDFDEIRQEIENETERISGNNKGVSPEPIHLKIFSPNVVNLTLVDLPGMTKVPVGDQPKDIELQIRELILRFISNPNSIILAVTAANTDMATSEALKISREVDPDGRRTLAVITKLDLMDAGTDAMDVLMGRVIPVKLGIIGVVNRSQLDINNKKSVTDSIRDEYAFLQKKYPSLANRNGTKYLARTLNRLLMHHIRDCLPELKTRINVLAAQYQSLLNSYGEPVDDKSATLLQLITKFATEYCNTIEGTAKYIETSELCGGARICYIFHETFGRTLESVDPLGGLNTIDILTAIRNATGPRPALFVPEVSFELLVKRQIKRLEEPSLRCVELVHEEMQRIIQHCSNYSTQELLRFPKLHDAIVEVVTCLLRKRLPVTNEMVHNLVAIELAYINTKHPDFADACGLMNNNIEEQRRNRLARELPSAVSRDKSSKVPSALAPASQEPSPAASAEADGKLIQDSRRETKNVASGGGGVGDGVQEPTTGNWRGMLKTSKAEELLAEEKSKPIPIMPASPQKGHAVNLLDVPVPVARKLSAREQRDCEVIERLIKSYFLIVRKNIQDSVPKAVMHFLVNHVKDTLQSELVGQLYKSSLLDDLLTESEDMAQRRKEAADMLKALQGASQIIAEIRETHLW
# UniProt Q9UDY4: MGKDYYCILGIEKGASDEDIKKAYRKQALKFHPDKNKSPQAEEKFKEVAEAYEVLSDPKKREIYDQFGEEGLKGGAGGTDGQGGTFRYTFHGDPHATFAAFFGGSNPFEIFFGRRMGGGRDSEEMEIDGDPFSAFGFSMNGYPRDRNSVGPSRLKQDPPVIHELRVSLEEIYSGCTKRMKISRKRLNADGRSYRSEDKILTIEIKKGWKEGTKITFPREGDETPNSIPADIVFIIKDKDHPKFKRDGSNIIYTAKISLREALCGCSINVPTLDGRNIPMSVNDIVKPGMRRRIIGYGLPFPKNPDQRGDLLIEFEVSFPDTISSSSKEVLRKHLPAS
# UniProt Q8TEA8: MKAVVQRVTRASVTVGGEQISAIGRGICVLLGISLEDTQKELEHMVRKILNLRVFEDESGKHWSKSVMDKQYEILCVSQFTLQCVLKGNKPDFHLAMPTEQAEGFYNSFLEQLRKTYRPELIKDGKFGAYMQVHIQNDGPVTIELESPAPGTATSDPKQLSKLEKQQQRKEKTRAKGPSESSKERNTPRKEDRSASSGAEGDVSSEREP
# UniProt Q9C005, whole entry, looked up: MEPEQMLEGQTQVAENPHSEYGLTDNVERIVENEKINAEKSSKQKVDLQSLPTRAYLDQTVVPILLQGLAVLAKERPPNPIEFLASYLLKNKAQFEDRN
# UniProt Q9BZ29: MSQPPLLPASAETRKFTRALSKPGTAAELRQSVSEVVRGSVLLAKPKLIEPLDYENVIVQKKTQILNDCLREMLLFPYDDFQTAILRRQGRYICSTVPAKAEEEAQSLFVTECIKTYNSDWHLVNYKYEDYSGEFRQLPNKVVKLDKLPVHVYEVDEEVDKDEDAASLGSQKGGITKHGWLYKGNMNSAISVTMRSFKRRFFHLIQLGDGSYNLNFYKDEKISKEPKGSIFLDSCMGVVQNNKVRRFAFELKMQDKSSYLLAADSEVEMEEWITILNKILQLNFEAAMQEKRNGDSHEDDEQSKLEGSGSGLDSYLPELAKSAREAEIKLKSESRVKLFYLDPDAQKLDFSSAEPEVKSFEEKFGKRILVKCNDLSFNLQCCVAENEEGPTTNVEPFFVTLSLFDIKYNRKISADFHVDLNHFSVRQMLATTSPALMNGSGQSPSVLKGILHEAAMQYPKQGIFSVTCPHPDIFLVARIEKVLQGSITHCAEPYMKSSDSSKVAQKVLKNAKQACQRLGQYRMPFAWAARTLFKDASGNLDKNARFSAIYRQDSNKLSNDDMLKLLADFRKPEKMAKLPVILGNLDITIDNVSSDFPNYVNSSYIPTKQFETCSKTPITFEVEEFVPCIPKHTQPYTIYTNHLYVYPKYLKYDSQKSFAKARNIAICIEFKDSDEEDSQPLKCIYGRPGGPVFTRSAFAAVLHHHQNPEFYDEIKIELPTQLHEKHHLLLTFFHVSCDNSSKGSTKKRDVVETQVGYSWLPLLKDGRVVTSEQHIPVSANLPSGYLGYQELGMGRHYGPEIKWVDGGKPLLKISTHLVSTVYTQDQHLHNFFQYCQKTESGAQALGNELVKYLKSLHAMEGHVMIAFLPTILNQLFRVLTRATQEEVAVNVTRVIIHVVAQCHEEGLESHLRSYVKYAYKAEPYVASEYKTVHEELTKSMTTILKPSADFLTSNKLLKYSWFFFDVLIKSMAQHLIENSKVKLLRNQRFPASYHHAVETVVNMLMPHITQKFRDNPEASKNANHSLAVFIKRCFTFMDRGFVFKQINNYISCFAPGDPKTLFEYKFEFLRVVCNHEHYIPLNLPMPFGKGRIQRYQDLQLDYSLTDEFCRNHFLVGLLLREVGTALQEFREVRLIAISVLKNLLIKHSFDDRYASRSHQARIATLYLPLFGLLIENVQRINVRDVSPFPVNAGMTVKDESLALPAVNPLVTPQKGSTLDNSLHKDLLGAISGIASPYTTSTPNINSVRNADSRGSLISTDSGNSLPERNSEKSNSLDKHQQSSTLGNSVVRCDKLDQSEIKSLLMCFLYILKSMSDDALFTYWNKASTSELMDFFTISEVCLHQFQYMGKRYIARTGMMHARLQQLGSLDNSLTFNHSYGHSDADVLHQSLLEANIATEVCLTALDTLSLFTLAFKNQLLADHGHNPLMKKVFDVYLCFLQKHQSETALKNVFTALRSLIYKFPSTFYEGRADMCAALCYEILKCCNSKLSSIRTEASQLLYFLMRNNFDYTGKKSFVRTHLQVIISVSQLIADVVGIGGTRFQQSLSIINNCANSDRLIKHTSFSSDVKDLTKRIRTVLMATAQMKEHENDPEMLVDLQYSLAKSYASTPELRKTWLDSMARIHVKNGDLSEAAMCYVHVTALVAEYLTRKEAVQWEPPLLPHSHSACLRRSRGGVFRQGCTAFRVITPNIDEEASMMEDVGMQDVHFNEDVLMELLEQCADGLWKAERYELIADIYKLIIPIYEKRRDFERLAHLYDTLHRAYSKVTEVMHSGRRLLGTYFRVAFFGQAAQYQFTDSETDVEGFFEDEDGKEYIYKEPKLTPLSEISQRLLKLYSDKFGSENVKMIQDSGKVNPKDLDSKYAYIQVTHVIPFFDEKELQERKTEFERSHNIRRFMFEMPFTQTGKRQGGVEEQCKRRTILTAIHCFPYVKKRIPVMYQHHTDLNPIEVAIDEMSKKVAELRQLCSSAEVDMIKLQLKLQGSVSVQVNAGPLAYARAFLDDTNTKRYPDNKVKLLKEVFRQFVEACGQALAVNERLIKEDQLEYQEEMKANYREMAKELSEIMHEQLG
# UniProt O00115: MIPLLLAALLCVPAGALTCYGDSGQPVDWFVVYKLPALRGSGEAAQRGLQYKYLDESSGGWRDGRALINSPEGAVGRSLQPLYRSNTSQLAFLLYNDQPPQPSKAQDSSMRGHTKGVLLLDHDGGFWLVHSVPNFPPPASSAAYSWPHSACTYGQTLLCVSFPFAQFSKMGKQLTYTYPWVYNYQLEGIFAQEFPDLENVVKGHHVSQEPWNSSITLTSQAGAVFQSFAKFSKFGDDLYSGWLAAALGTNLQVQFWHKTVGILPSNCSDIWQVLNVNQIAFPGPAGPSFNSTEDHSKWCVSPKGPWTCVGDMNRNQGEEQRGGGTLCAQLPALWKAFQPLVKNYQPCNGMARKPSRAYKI
# UniProt P33316: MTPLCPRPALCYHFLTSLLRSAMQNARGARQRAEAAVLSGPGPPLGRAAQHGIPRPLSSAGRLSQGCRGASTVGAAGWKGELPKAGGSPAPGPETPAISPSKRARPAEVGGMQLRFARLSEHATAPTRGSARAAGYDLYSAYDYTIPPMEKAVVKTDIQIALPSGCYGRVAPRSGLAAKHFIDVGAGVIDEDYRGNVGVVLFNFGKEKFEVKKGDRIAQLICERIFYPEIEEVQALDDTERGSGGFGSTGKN
# UniProt O43598: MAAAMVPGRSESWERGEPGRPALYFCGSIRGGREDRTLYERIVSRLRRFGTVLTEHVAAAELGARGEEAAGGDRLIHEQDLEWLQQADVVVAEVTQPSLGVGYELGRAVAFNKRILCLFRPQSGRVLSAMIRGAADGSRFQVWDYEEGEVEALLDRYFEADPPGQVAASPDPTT
# UniProt Q9H3H5: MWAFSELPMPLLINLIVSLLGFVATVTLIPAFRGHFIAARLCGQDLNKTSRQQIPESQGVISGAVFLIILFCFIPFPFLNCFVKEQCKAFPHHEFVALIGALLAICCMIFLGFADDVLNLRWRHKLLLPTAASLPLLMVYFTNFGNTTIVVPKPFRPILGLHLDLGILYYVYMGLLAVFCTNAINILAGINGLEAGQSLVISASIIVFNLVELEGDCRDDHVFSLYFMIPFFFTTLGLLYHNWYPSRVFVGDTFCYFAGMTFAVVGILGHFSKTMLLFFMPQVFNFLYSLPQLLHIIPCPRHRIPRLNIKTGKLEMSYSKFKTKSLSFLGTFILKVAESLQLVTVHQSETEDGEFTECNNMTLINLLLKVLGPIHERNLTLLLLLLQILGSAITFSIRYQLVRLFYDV
# UniProt Q9BZQ6: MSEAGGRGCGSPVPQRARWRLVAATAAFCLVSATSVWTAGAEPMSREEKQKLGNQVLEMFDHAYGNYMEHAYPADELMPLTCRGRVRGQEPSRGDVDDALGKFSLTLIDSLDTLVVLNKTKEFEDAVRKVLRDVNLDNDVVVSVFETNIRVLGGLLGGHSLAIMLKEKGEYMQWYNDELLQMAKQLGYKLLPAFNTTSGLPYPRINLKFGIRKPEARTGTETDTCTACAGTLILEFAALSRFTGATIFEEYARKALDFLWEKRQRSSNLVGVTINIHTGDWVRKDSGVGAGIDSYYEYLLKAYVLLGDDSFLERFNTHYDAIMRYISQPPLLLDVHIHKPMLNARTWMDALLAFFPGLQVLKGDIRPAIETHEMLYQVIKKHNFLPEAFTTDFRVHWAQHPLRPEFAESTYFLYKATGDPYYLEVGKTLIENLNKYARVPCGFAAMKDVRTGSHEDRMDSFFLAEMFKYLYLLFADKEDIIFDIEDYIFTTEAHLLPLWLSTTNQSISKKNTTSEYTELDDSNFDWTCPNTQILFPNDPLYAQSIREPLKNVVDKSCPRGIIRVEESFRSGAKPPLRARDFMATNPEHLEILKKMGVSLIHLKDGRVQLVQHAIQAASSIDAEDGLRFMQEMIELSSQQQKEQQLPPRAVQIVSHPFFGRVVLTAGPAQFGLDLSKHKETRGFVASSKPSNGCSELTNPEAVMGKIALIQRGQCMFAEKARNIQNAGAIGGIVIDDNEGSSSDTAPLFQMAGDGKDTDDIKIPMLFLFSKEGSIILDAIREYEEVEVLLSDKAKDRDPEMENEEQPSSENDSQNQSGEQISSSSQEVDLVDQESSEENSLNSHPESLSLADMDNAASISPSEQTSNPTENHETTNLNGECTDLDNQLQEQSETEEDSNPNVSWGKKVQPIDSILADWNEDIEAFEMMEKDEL
# Compound: CN1CCc2c(c3ccccc3n2Cc2ccc(C(=O)NO)cc2)C1 [Tubastatin A]
# Test: log2 fold change, soluble protein after heating vs DMSO (PISA); higher = thermal stabilisation; K562 cells, 10 uM, 30 min; active = over 0.2 and 3.5 SD of the protein, either way, in both replicates (recomputed)
# How it was run: (§1)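 K562 cells at 2×10^6 cells/mL were treated for 30 min with 10 μM compound, and aliquots were heated for 3 min over 48°C-58°C before pooling. Extraction used PBS with 0.5% NP-40 at 4°C, and soluble protein was the supernatant after 21,000xg for 90 min, measured by TMTpro 16plex LC-MS/MS with channel sums equalised. Thermal stability values, relative to control samples and from duplicates, are log2 fold changes.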
row,Target,log2 fold change
1,EDEM1 (UniProt Q92611),inactive: 0.022
2,EBP (UniProt Q15125),inactive: -0.056
3,DYNLL1 (UniProt P63167),inactive: 0.018
4,DPH6 (UniProt Q7L8W6),inactive: -0.014
5,ECSIT (UniProt Q9BQ95),inactive: -0.006
6,DNAJC9 (UniProt Q8WXX5),inactive: 0
7,DNAJC2 (UniProt Q99543),inactive: 0.102
8,ECI1 (UniProt P42126),inactive: -0.036
9,DNM1L isoform 6 (UniProt O00429),inactive: -0.007
10,DPF2 (UniProt Q92785),inactive: -0.025
11,DNAJB4 (UniProt Q9UDY4),inactive: -0.025
12,ECHDC1 (UniProt Q9NTX5),inactive: -0.03
13,DTD1 (UniProt Q8TEA8),inactive: 0.025
14,DR1 (UniProt Q01658),inactive: -0.027
15,DPY30 (UniProt Q9C005),inactive: 0.063
16,DNAJB6 (UniProt O75190),inactive: 0.005
17,DOCK9 isoform 4 (UniProt Q9BZ29),inactive: -0.01

row,Target,log2 fold change
1,DPP7 (UniProt Q9UHL4),inactive: -0.024
2,DNASE2 (UniProt O00115),inactive: -0.04
3,DUSP3 (UniProt P51452),inactive: 0.084
4,DSG2 (UniProt Q14126),inactive: 0.03
5,DNAJC17 (UniProt Q9NVM6),inactive: 0.026
6,DPH2 (UniProt Q9BQC3),inactive: -0.002
7,EBAG9 isoform 2 (UniProt O00559),inactive: 0.016
8,DUT (UniProt P33316),inactive: -0.005
9,DNPH1 (UniProt O43598),inactive: 0.017
10,DPAGT1 (UniProt Q9H3H5),inactive: -0.114
11,DPH1 (UniProt Q9BZG8),inactive: -0.032
12,DOCK7 (UniProt Q96N67),inactive: -0.023
13,DPY19L4 (UniProt Q7Z388),inactive: 0.039
14,DPP9 isoform 2 (UniProt Q86TI2),inactive: -0.032
15,DPH7 (UniProt Q9BTV6),inactive: 0.088
16,EDEM3 (UniProt Q9BZQ6),inactive: 0.061

# Compound: CNC(=O)C1=CC=CC=C1NC2=NC(=NC=C2Cl)NC3=C(C=C(C=C3)N4CCOCC4)OC
# Test: as above
# How it was run: as §1
row,Target,log2 fold change
1,EDEM1 (UniProt Q92611),inactive: -0.107
2,EBP (UniProt Q15125),inactive: -0.066
3,DYNLL1 (UniProt P63167),inactive: -0.007
4,DPH6 (UniProt Q7L8W6),inactive: 0.02
5,ECSIT (UniProt Q9BQ95),inactive: -0.051
6,DNAJC9 (UniProt Q8WXX5),inactive: 0
7,DNAJC2 (UniProt Q99543),inactive: -0.039
8,ECI1 (UniProt P42126),inactive: -0.021
9,DNM1L isoform 6 (UniProt O00429),inactive: -0.041
10,DPF2 (UniProt Q92785),inactive: -0.058
11,DNAJB4 (UniProt Q9UDY4),inactive: -0.003
12,ECHDC1 (UniProt Q9NTX5),inactive: 0.009
13,DTD1 (UniProt Q8TEA8),inactive: -0.01
14,DR1 (UniProt Q01658),inactive: -0.038
15,DPY30 (UniProt Q9C005),inactive: -0.021
16,DNAJB6 (UniProt O75190),inactive: 0.02
17,DOCK9 isoform 4 (UniProt Q9BZ29),inactive: 0.018

row,Target,log2 fold change
1,DPP7 (UniProt Q9UHL4),inactive: 0.014
2,DNASE2 (UniProt O00115),inactive: 0.058
3,DUSP3 (UniProt P51452),inactive: 0.064
4,DSG2 (UniProt Q14126),inactive: -0.008
5,DNAJC17 (UniProt Q9NVM6),inactive: -0.046
6,DPH2 (UniProt Q9BQC3),inactive: -0.054
7,EBAG9 isoform 2 (UniProt O00559),inactive: -0.082
8,DUT (UniProt P33316),inactive: -0.041
9,DNPH1 (UniProt O43598),inactive: 0.108
10,DPAGT1 (UniProt Q9H3H5),inactive: 0.07
11,DPH1 (UniProt Q9BZG8),inactive: -0.033
12,DOCK7 (UniProt Q96N67),inactive: -0.141
13,DPY19L4 (UniProt Q7Z388),inactive: -0.062
14,DPP9 isoform 2 (UniProt Q86TI2),inactive: -0.008
15,DPH7 (UniProt Q9BTV6),inactive: -0.007
16,EDEM3 (UniProt Q9BZQ6),inactive: -0.005

# Compound: CNC(=O)c1ccc(Nc2ncc(C(F)(F)F)c(NCc3nccnc3N(C)S(C)(=O)=O)n2)cc1 [defactinib]
# Test: as above
# How it was run: as §1
row,Target,log2 fold change
1,EDEM1 (UniProt Q92611),inactive: 0.026
2,EBP (UniProt Q15125),inactive: -0.075
3,DYNLL1 (UniProt P63167),inactive: -0.051
4,DPH6 (UniProt Q7L8W6),inactive: -0.053
5,ECSIT (UniProt Q9BQ95),inactive: -0.024
6,DNAJC9 (UniProt Q8WXX5),inactive: -0.061
7,DNAJC2 (UniProt Q99543),inactive: -0.019
8,ECI1 (UniProt P42126),inactive: -0.008
9,DNM1L isoform 6 (UniProt O00429),inactive: 0.015
10,DPF2 (UniProt Q92785),inactive: -0.02
11,DNAJB4 (UniProt Q9UDY4),inactive: -0.011
12,ECHDC1 (UniProt Q9NTX5),inactive: -0.002
13,DTD1 (UniProt Q8TEA8),inactive: -0.081
14,DR1 (UniProt Q01658),inactive: 0.006
15,DPY30 (UniProt Q9C005),inactive: -0.259
16,DNAJB6 (UniProt O75190),inactive: -0.019
17,DOCK9 isoform 4 (UniProt Q9BZ29),inactive: -0.045

row,Target,log2 fold change
1,DPP7 (UniProt Q9UHL4),inactive: -0.021
2,DNASE2 (UniProt O00115),inactive: 0.023
3,DUSP3 (UniProt P51452),inactive: -0.052
4,DSG2 (UniProt Q14126),inactive: -0.076
5,DNAJC17 (UniProt Q9NVM6),inactive: -0.057
6,DPH2 (UniProt Q9BQC3),inactive: -0.001
7,EBAG9 isoform 2 (UniProt O00559),inactive: 0.04
8,DUT (UniProt P33316),inactive: 0.029
9,DNPH1 (UniProt O43598),inactive: -0.061
10,DPAGT1 (UniProt Q9H3H5),inactive: -0.036
11,DPH1 (UniProt Q9BZG8),inactive: -0.033
12,DOCK7 (UniProt Q96N67),inactive: -0.063
13,DPY19L4 (UniProt Q7Z388),inactive: -0.126
14,DPP9 isoform 2 (UniProt Q86TI2),inactive: -0.049
15,DPH7 (UniProt Q9BTV6),inactive: -0.023
16,EDEM3 (UniProt Q9BZQ6),inactive: 0.032

# From the supplement of paper PMC10849652
